Data as given in PubChem BioAssay AID1259405 (NCATS, 2018)
Purpose: 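Knock-downs that lift recombinant protein yield in hamster ovary cells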 (primary screen). System: Chinese hamster CHO-K1 ovary cells with stable secreted eGFP expression. Reagents: single siRNA against mouse genes, 0.8 pmol siRNA per well (2 µl of 400 nM stock). Time to read-out: 3 days. Measurement: 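Per-well intracellular GFP measured by laser scanning cytometry, plus viability from ATP luminescence, each relative to plate median of non-targeting control wells, in %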. Reading the numbers: GFP, % of control: higher = more GFP per well, higher productivity; viability (ATP), % of control: higher = more viable cells (more ATP). Hit rule: 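a knock-down is called active if GFP reaches 120% or more of non-targeting control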.
The deposit covers about 50,000 reagents; below is a random part of them. Of all reagents, about 4,000 (8%) are marked active. 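Mouse siRNA library applied to hamster cells; one well for each siRNA.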 The numbers tell different reagents against one gene apart.

| gene symbol | reagent no. | GFP, % of control | viability (ATP), % of control | call |
| --- | --- | --- | --- | --- |
| Kctd18 | 1 | 33.2 | 33.8 | inactive |
| Kctd18 | 2 | 73.9 | 74.8 | inactive |
| Kctd18 | 3 | 62.4 | 74.2 | inactive |
| Dcph1 | 1 | 89.3 | 71.5 | inactive |
| Dcph1 | 2 | 57 | 75.1 | inactive |
| Dcph1 | 3 | 71.4 | 56 | inactive |
| Ssr4 | 1 | 58.2 | 60.2 | inactive |
| Ssr4 | 2 | 87.3 | 102 | inactive |
| Ssr4 | 3 | 62.1 | 80.8 | inactive |
| Pwwp3b | 1 | 25.5 | 31.1 | inactive |
| Pwwp3b | 2 | 25.4 | 25.4 | inactive |
| Pwwp3b | 3 | 69.4 | 80.5 | inactive |
| Slc5a7 | 1 | 88.1 | 86.6 | inactive |
| Slc5a7 | 2 | 63.2 | 64 | inactive |
| Slc5a7 | 3 | 94.2 | 88.5 | inactive |
| Mad2l1bp | 1 | 75.5 | 63.4 | inactive |
| Mad2l1bp | 2 | 83 | 79.6 | inactive |
| Mad2l1bp | 3 | 37 | 50.6 | inactive |
| Snrnp25 | 1 | 104 | 62 | inactive |
| Snrnp25 | 2 | 63.4 | 60 | inactive |
| Snrnp25 | 3 | 100 | 86.9 | inactive |
| Cyth4 | 1 | 92 | 62.3 | inactive |
| Cyth4 | 2 | 89.3 | 108 | inactive |
| Cyth4 | 3 | 79.6 | 83.9 | inactive |
| Chil6 | 1 | 91.7 | 75.4 | inactive |
| Chil6 | 2 | 113 | 92.8 | inactive |
| Chil6 | 3 | 51.7 | 58.6 | inactive |
| Dhrsx | 1 | 108 | 91.7 | inactive |
| Dhrsx | 2 | 77.3 | 79.2 | inactive |
| Dhrsx | 3 | 68 | 75.4 | inactive |
| Insyn1 | 1 | 123 | 126 | active |
| Insyn1 | 2 | 94.2 | 68.9 | inactive |
| Insyn1 | 3 | 91.6 | 92.1 | inactive |
| Mrps18c | 1 | 84.3 | 77.6 | inactive |
| Mrps18c | 2 | 145 | 87.7 | active |
| Mrps18c | 3 | 115 | 67.6 | inactive |
| Jchain | 1 | 84.3 | 79.6 | inactive |
| Jchain | 2 | 66.1 | 47.3 | inactive |
| Jchain | 3 | 64.6 | 86.7 | inactive |
| Ahcy | 1 | 102 | 76.5 | inactive |
| Ahcy | 2 | 89.2 | 44.3 | inactive |
| Ahcy | 3 | 77.3 | 73 | inactive |

Entries above with an active call:
| gene symbol | reagent no. | GFP, % of control | viability (ATP), % of control | call |
| --- | --- | --- | --- | --- |
| Insyn1 | 1 | 123 | 126 | active |
| Mrps18c | 2 | 145 | 87.7 | active |

The listing continues.
| gene symbol | reagent no. | GFP, % of control | viability (ATP), % of control | call |
| --- | --- | --- | --- | --- |
| Rbp7 | 1 | 79.1 | 61.8 | inactive |
| Rbp7 | 2 | 74.5 | 84.3 | inactive |
| Rbp7 | 3 | 78.1 | 81.7 | inactive |
| Rhox10 | 1 | 84.8 | 59.1 | inactive |
| Rhox10 | 2 | 77.5 | 93.9 | inactive |
| Rhox10 | 3 | 60.6 | 60.9 | inactive |
| Or10p1 | 1 | 90.1 | 91.8 | inactive |
| Or10p1 | 2 | 82.9 | 102 | inactive |
| Or10p1 | 3 | 53.8 | 50.4 | inactive |
| Cdc42se2 | 1 | 104 | 84.2 | inactive |
| Cdc42se2 | 2 | 81.4 | 78 | inactive |
| Cdc42se2 | 3 | 50.6 | 56.7 | inactive |
| Oas1f | 1 | 142 | 132 | active |
| Oas1f | 2 | 78.8 | 76.9 | inactive |
| Oas1f | 3 | 40.5 | 53.4 | inactive |
| Rnf123 | 1 | 97.1 | 96.9 | inactive |
| Rnf123 | 2 | 78.4 | 57.4 | inactive |
| Rnf123 | 3 | 71.2 | 64.1 | inactive |
| Ube2d2b | 1 | 90.6 | 79.3 | inactive |
| Ube2d2b | 2 | 104 | 81.7 | inactive |
| Ube2d2b | 3 | 86.4 | 65.1 | inactive |
| Pold3 | 1 | 39.8 | 90.9 | inactive |
| Pold3 | 2 | 102 | 89.7 | inactive |
| Mzb1 | 1 | 150 | 75.6 | active |
| Mzb1 | 2 | 78.7 | 79.7 | inactive |
| Mzb1 | 3 | 45.7 | 70.6 | inactive |
| Tex12 | 1 | 68.1 | 66.4 | inactive |
| Tex12 | 2 | 67.4 | 106 | inactive |
| Tex12 | 3 | 113 | 98.8 | inactive |
| Carnmt1 | 1 | 71.7 | 72.6 | inactive |
| Carnmt1 | 2 | 69.1 | 49.4 | inactive |
| Carnmt1 | 3 | 80.5 | 81.9 | inactive |
| Chst1 | 1 | 113 | 70 | inactive |
| Chst1 | 2 | 107 | 135 | inactive |
| Chst1 | 3 | 83.8 | 104 | inactive |
| Pbrm1 | 1 | 99.9 | 93.1 | inactive |
| Pbrm1 | 2 | 85.9 | 76 | inactive |
| Pbrm1 | 3 | 68.8 | 78.9 | inactive |
| Rtn3 | 1 | 108 | 60.1 | inactive |
| Rtn3 | 2 | 44.8 | 45.6 | inactive |
| Rtn3 | 3 | 88.3 | 71.6 | inactive |
| Rap1a | 1 | 67.9 | 67.4 | inactive |
| Rap1a | 2 | 56.2 | 53.3 | inactive |
| Rap1a | 3 | 105 | 70.4 | inactive |
